Measured data: PubChem BioAssay AID504764 (Drosophila RNAi Screening Center, 2011)
In all, the deposit lists about 22,000 reagents; shown is a random part of those that have a named target and a result. Of all reagents, 403 (1.9%) are marked active. 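Unnormalised raw counts per well; ratio z-scores behind the hit calls and whether each hit raises or lowers signal are not deposited.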 Not given: the amount of reagent.

Screen: 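Knock-downs that raise or lower a Notch target reporter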 (primary screen)
Cell system: Drosophila Kc167 cells
Reagents: long dsRNA against Drosophila genes
Timing: about 5 days (4 days dsRNA, then 24 h after transfection)
Conditions: transfection of constitutively active membrane-tethered Notch lacking the extracellular domain, read 24 h later
Read-out: 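Firefly luciferase from an E(spl)m3 reporter with active Notch, plus control-promoter and uninduced reporter wells for normalisation; unnormalised counts, duplicate wells a and b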
Reading the numbers: induced reporter light, run 1, well a and induced reporter light, run 1, well b: higher = more light from the Notch target reporter with active Notch; control promoter light, run 1, well a and control promoter light, run 1, well b: higher = more light from the viral control promoter (cell number, transfection, viability); uninduced reporter light, run 1, well a: higher = more light from the Notch target reporter without active Notch
Rule for the call: 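Wells with low control signal or poorly matching duplicates excluded; duplicates averaged; per source plate, z beyond ±2 for induced/control log2 ratio or beyond ±1.8 for induced/uninduced marks a hit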
Meaning of the calls: active = modifier hit (raised or lowered Notch signal); inactive = not a hit

target gene,dsRNA,"induced reporter light, run 1, well a","induced reporter light, run 1, well b","control promoter light, run 1, well a","control promoter light, run 1, well b","uninduced reporter light, run 1, well a",Outcome
CG5021,DRSC10469,2.08e5,2.56e5,2.29e5,2.77e5,10295,inactive
bw,DRSC04005,1.24e5,1.41e5,2.18e5,1.82e5,8800,inactive
bw,DRSC04677,2.06e5,1.61e5,1.31e5,1.52e5,14215,inactive
Eig71Ea,DRSC11148,1.64e5,1.59e5,1.99e5,1.61e5,6690,inactive
CG42286 (retired record),DRSC14357,32775,28735,34410,21300,4405,inactive
CG18131,DRSC00517,25070,22990,20665,19180,5750,inactive
Sc2,DRSC08162,1.27e5,1.18e5,1.09e5,52405,11625,inactive
CG2100,DRSC12303,1.22e5,1.40e5,94775,82925,9975,inactive
regucalcin,DRSC18908,64795,61790,83315,63020,6475,inactive
regucalcin,DRSC20366,1.04e5,96020,1.38e5,1.24e5,8700,inactive
Mcm5,DRSC16735,69135,83465,76475,57065,4735,inactive
TfIIB,DRSC03454,1.15e5,1.09e5,67345,80060,14230,inactive
Grl65a,DRSC08837,2.54e5,2.08e5,2.40e5,2.59e5,16460,inactive
sPLA2,DRSC06041,1.91e5,2.05e5,1.91e5,2.16e5,16050,inactive
Tab2,DRSC07481,1.06e5,87225,1.13e5,1.22e5,8780,inactive
128up,DRSC05027,1.62e5,1.80e5,1.64e5,1.69e5,14895,inactive
CG4496,DRSC02753,1.61e5,1.35e5,1.52e5,1.35e5,9355,inactive
meep,DRSC07948,1.31e5,1.51e5,1.30e5,1.37e5,9495,inactive
RnrL,DRSC03413,1.99e5,2.21e5,1.29e5,1.53e5,17980,inactive
Neurl4,DRSC10638,1.36e5,1.28e5,84090,1.01e5,10215,inactive
